Results published in patent publication US20150197561A1 (ONCOMED PHARMACEUTICALS, published 2015).
Results are given in words; binding and its absence hold for the method and conditions named. Some entries that bind do so weakly or less than the wild type.

Protein sequences, listed by entry. Tags and fused reporters are not part of them. Lines headed by an entry give the natural chain unless they say otherwise; changes in a name come on top.
UniProt P78504: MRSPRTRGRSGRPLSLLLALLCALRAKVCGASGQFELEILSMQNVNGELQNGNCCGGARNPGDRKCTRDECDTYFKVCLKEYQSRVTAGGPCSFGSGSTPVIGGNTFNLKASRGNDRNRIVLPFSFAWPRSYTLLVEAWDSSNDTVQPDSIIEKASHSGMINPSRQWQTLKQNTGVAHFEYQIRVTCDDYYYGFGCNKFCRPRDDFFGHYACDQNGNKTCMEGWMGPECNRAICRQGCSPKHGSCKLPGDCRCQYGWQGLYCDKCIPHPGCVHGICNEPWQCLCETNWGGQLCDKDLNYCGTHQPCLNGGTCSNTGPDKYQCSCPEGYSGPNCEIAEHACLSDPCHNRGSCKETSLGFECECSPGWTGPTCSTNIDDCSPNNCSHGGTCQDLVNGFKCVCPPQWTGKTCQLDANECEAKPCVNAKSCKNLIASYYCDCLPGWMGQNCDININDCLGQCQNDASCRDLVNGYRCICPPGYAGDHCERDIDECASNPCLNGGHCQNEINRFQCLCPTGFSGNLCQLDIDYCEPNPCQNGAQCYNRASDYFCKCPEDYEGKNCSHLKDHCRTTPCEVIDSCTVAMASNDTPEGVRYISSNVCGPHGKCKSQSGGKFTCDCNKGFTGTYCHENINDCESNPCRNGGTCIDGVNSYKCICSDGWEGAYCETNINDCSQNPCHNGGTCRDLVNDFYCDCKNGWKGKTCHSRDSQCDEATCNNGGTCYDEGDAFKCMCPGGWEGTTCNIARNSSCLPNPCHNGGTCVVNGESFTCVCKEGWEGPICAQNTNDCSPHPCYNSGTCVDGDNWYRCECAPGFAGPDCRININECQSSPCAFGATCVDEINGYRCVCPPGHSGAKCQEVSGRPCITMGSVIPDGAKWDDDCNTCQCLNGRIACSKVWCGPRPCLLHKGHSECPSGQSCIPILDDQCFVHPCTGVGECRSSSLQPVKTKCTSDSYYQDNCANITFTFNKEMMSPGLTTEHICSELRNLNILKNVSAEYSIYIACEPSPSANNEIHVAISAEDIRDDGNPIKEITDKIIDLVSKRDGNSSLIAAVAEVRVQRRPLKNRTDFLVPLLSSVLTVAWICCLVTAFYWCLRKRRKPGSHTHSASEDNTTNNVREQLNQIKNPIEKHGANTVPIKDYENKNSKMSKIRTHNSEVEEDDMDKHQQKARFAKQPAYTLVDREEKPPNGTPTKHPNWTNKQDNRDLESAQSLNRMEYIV

How the values were obtained:
[1] = biological target: recombinant monovalent human Jagged1 protein (human) (UniProt P78504); test: Biacore epitope competition, hJag1His captured on the 64R7 chip, 64M51 injected as solution antibody (100 nM per paragraph 236)
[2] = biological target: recombinant monovalent human Jagged1 protein (human) (UniProt P78504); test: Biacore, 64M51 immobilised on a CM5 chip, hJag1His injected over it (y axis has no printed unit)
[3] = biological target: recombinant monovalent human Jagged1 protein (human) (UniProt P78504); test: SPR, antibody immobilised on CM5 chip, monovalent human Jagged1 flowed over
[4] = biological target: recombinant monovalent human Jagged1 protein (human) (UniProt P78504); test: Biacore epitope competition, hJag1His captured on the 64R1B chip, 64M51 injected as solution antibody (100 nM per paragraph 236)
[5] = biological target: recombinant monovalent human Jagged1 protein (human) (UniProt P78504); test: Biacore epitope competition, hJag1His captured on the 64R7 chip, 64R1B injected as solution antibody (100 nM per paragraph 236)
[6] = biological target: recombinant monovalent human Jagged1 protein (human) (UniProt P78504); test: Biacore, 64R1B immobilised on a CM5 chip, hJag1His injected over it (y axis has no printed unit)
[7] = biological target: recombinant monovalent human Jagged1 protein (human) (UniProt P78504); test: Biacore epitope competition, hJag1His captured on the 64M51 chip, 64R1B injected as solution antibody (100 nM per paragraph 236)

Measured: binding

B1: antibody 64M51 (antibody, mouse IgG1, kappa, V domains shown)
VH: QVQLKQSGAELVRPGTSVKLSCKTSGYIFTSYWIHWVKQRSGQGLEWIARIYPGIGSTYYNEKFKDKATLTADKSSSTAYMQLSSLKSEDSAVYFCAKNGGFFDYWGQGTTLTVSS
VL: DIVLTQSPASLAVSLGQRATISCRASESVDSYGNSFMHWYQQKPGQPPKLLIYRASNLESGIPARFSGSGSRTDFTLTINPVEADDVATYYCQQSNEDPWTFGGGTKLEIKR
notes: Mouse hybridoma monoclonal raised against mouse Jagged1 ECD-His; also called anti-Jagged 64M51; ATCC PTA-10468
binds: [1] | [2] | [3] | [4]

B2: 64R1B IgG2 antibody (antibody, V domains shown)
VH: QVQLQESGPGLVKPSGTLSLTCTVSGDSISSSNWWSWVRQPPGQGLEWIGEIFHGENTNYNPSLKSRVTISVDKSKNQISLNLTSATAADTAVYYCARNPGIGAAKFDSWGQGTLVTVSS
VL: DIVMTQTPLSLSVTPGQPASISCKSSQSLLHSDGKTYLYWYLQKPGQPPQLLIYEVSNRFSGVPDRFSGSGSGTDFTLKISRVEAEDVGVYYCMQHIDFPFTFGQGTKLEIKR
notes: Human IgG2 / kappa, expressed in CHO cells; also called antibody 64R1B; ATCC PTA-10469
binds: [5] | [6] | [3] | [7]
